# Experimental data as given in patent publication US12673918B2, “Small molecule RPN13 inhibitors with antitumor properties” (The Johns Hopkins University, priority 2019, dated 2026).
# Protein sequences, listed by entry. Tags and fused reporters are not part of them. Lines headed by an entry give the natural chain unless they say otherwise; changes in a name come on top.
# UniProt Q16186: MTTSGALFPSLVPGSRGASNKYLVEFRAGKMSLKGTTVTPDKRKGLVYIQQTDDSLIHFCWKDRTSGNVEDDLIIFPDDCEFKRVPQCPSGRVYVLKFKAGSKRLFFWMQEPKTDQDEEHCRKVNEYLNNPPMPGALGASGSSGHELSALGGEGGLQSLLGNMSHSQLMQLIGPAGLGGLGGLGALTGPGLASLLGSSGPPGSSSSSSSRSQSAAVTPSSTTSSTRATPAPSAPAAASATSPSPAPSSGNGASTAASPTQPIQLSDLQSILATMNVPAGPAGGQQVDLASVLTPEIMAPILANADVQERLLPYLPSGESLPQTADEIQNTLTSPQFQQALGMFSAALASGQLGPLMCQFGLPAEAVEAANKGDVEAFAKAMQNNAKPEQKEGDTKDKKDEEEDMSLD
# At least one structure is not confirmed: it was looked up by name or label, or the drawing left a doubt. Some results were stated once for a whole list of compounds, not compound by compound.
# Key:
# RPN13 = RPN13 (Homo sapiens, UniProt Q16186); assay: Competition with RA190B labeling of 42 kDa cellular target in cell lysate; type: binding; set-up: endogenous in cells; running text says HeLa) and OV2008 cell lysates; conditions: cell lysate pre-incubated with compounds (20 μM), then RA190B; HRP-streptavidin blot
# Procedure: (§1) FIG. 1B illustrates precleared ES2 cell lysate incubated with compounds (20 μM) or vehicle (DMSO, 1:100) for 45 min and then with RA190B (5 μM) for 45 min at 4° C. by Western blot analysis. Samples were subjected to SDS-PAGE, transfer to PVDF membrane, and after probing with HRP-streptavidin, binding was detected using chemiluminescence.
# as §1, with “2B” for “1B”, “OV2008” for “ES2”, “(10” for “(5”, “binding of” for “after probing with”, “HRP-streptavidin,” for “HRP-streptavidin, binding was”
# Biotinylated RA190 (RA190B, FIG. 1A) is utilized as a probe to detect covalent binding to its cellular target(s) in detergent lysates of cancer cell lines (10). […] Here, the ability of compounds (FIG. 1A) to compete with RA190B binding to its 42 kDa cellular target (FIG. 1B) were examined. Compounds, including bortezomib as a negative control, were incubated with HeLa cell lysate and then RA190B added.
# Biotin labeling Assay: Clarified cell lysate in MPER buffer was pretreated with streptavidin magna beads for 45 min at 4° C. to deplete non-specific biotinylated proteins in the cell lysate. […]
# intracellular GSH = assay: Total GSH assay, SKOV3 cells; type: cell-based, human; conditions: SKOV3, 0.5 μM, 12 hr
# Procedure: Luciferase and GSH assays: Sub-confluent cultures of cells were transfected with 4Ub-FL or FL plasmid using Lipofectamine 2000 reagent (Life Technologies). Cells were seeded at 10,000 cells/well in 96-wells plate 48 hr post transfection and incubated with compounds or vehicle (DMSO) at the doses and times indicated. Luciferase activity in cell lysate was determined with a luciferase assay kit (Promega) according to the manufacturer's instructions. Bioluminescence was measured by using a Glomax Multidetection system (Promega). Glutathione was assayed using the Promega GSH assay kit (V6611).
# [1] = system: polyubiquitinated proteins; assay: Western blot of polyubiquitinated proteins, SKOV3 cells; type: cell-based, human; conditions: 4 h
# Procedure: FIG. 14A illustrates SKOV3 cells treated with compounds for 4 h and analyzed by Western blot analysis with antibody to ubiquitin.
# Antibodies, reagents, and Western Blot Analyses: Cell lysate (10-20 μg total protein) prepared in MPER (Pierce) from each sample was subjected to SDS-PAGE, transferred to PVDF membranes and analyzed by Western blot using antibodies specific Bax (#2772, Cell Signaling), ubiquitin (P4D1, sc-8017, Santa Cruz), PARP (#9542, BD Pharmingen), actin (#66009, Protein Tech Group), Tubulin(#66031, Protein Tech Group), ADRM1/Rpn13 (D9Z1U, #12019, Cell Signaling), Lys48-linkled ubiquitin (Apu 2, 05-1307, (Millipore), Annexin V (#559763, BD pharmingen), caspase-3 (51-68655X, BD Pharmingen) at the dilutions recommended by the manufacturers, and for secondary antibodies either peroxidase-linked anti-mouse IgG or anti-rabbit IgG (GE Healthcare UK Ltd) were utilized, HRP conjugated streptavidin (N100, Thermo Fisher) at the recommended dilution (1:5000). MitoTracker Red CMXRos reagent was purchased from ThermoFisher #M7512. The blots were developed using HyGLO chemiluminescent detection reagent (Denville).
# [2] = system: reactive oxygen species (ROS); assay: ROS by H2DCFDA flow cytometry, ES2 cells; type: cell-based, human; conditions: ES2, 1 μM, 12 hr
# SKOV3 = assay: MTT cytotoxicity assay, SKOV3; conditions: 48 hr
# Caspase 3 = Caspase 3 cleavage flow cytometry, ES2 cells; type: cell-based, human; conditions: ES2, 1 μM, 18 hr
# CHOP-10 mRNA = assay: RT-qPCR of CHOP-10 mRNA, ES2 cells; type: cell-based, human; conditions: ES2, 1 μM, 12 hr
# Procedure: FIG. 7A illustrates ES2 cells (250,000 cells/well) treated with compounds at 1 μM for 12 hr and mRNA was isolated. Samples were subjected to RT-qPCR to measure CHOP10 and mRNA levels normalized to GAPDH expression. Significance versus DMSO control (ns=not significant, ** <0.01, *** <0.001, **** <0.0001).
# FIG. 16A illustrates ES2 cells treated with compounds (0.5 μM) for 12 hr and CHOP-10 mRNA levels, an ER stress marker, which was analyzed by qRT-PCR.
# Q-PCR to measure mRNA levels: Total RNA was isolated from cells using the RNeasy mini kit (Qiagen) according to the manufacturer's instructions. Extracted RNA was normalized for concentration and reverse transcribed using an iScript cDNA synthesis kit (Bio-Rad) according to the manufacturer's instructions. CHOP10 expression levels were measured by Taqman gene expression assays with Taqman gene expression master mix (Applied Biosystems) and run with a standard thermal cycling protocol. Spliced XBP1 mRNA was assayed with SsoFast EvaGreen Supermix (Bio-rad) following the protocol for the iCycler System using as primers: F: 5′-[…]-3′ and R: 5′-[…]-3′. Calculations were done according to the Livak method and normalized to the reference gene GAPDH. Each condition was replicated three times; each sample was run in triplicate.
# HeLa cells = assay: XTT cytotoxicity assay, HeLa; type: cell-based, human; conditions: Table 1 cell lines (HeLa, SKOV3)
# Excerpt: The impact of substituents of the aromatic ring on the potency of molecules was also examined. The presence of either an electron withdrawing group (EWG) or an electron donating group (EDG) influences the reactivity of a Michael acceptor towards the target protein but can also impact specificity/selectivity.
smiles,measurement,setting,value
"N[C@@H](Cc1ccccc1)C(=O)N1C/C(=C\c2ccc(Cl)c(Cl)c2)C(=O)/C(=C/c2ccc(Cl)c(Cl)c2)C1 [RA190, reference compound]",competition with RA190B binding to 42 kDa cellular target,RPN13,competed labeling by RA190B to a greater extent
same,cellular total GSH levels,intracellular GSH,to a lesser extent
same,accumulation of polyubiquitinated proteins,[1],enhanced the accumulation of polyubiquitinated proteins
O=C(CCl)N[C@@H](Cc1ccccc1)C(=O)N1C/C(=C\c2ccc(Cl)c(Cl)c2)C(=O)/C(=C/c2ccc(Cl)c(Cl)c2)C1 [RA371],ROS induction (H2DCFDA),[2],significantly induced
same,activity in media with versus without cysteine and methionine,SKOV3,No significant difference
same,cleavage of Caspase 3,Caspase 3,induced rapid cleavage of Caspase 3
same,CHOP-10 mRNA levels versus RA190,CHOP-10 mRNA,significantly higher levels of CHOP-10 mRNA than RA190
O=C(CCl)NC(Cc1ccccc1)C(=O)N1CC(=Cc2csc(Br)c2)C(=O)C(=Cc2csc(Br)c2)C1 (stereo not drawn) [RA-BTPCA],fold decreased potency compared to RA190,HeLa cells,3-4 fold
O=C1C(=CC=Cc2ccccc2)CNCC1=CC=Cc1ccccc1 [RA-Cinn],fold decreased potency compared to RA190,HeLa cells,20-25 fold
